# Results as given in PubChem BioAssay AID2685 (National Center for Advancing Translational Sciences (NCATS), 2010).
# This is one part of the list. These are further read-outs of the screen, such as a control signal, another cell line or another target. No call is given for them. The list favours compounds with an active or inconclusive main result. Words in brackets tell the shape of the fitted curve; partial curves, single points and poor fits give uncertain potencies.
# Test: qHTS Assay for Lipid Storage Modulators in Drosophila S3 Cells;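 as to cell number change: cells counted by Cell Tracker Red CMTPX staining in the red channel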
# Conditions: BODIPY lipid droplet fluorescence, 18-24 h; for cell number change: measured here: cell count max response, cells fed with added oleic acid
# Summary of the method: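 Laser-scanning cytometry quantifies lipid droplet accumulation (500–530 nm total intensity; droplet/cell object ratio) in oleic acid-fed (400 uM added) Drosophila S3 cells treated with a concentration series. 20 uM Triacsin C defined 100% inhibition.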
# [1] = measured here: lipid fluorescence (Fed channel) AC50, cells fed with added oleic acid
# [2] = measured here: cell number channel AC50, cells fed with added oleic acid
compound,measurement,setting,value
CCOc1cc(/C=C/C(=O)c2ccc(O)cc2)ccc1OCC(=O)N(C)C,cell number change,,-23.7%
same,AC50,[1],"20.6 µM [falling, single point]"
COc1ccc(NC(=O)CSc2nnc(CCC(=O)O)c(=O)n2N)cc1,cell number change,,-30.8%
same,AC50,[2],"29.1 µM [falling, single point]"
same,AC50,[1],"29.1 µM [falling, single point]"
CCn1c(COc2ccccc2C)nnc1SCC(=O)Nc1ccc2c(c1)OCCO2,cell number change,,-7.97%
same,AC50,[1],"6.51 µM [rising, single point]"
COc1ccc(NS(=O)(=O)c2ccc(F)cc2F)cn1,cell number change,,34.6%
same,AC50,[2],"4.11 µM [rising, partial curve, poor fit]"
CC1=C(C(=O)N2CCCCC2)C(c2cccs2)C2=C(CCCC2=O)N1 (stereo not given),cell number change,,-27.5%
same,AC50,[2],"0.651 µM [falling, full curve]"
same,AC50,[1],"0.731 µM [falling, full curve]"
Cc1ccccc1OCc1nnc(SCC(=O)Nc2ccc3nc(SCC(=O)NC(C)(C)C)sc3c2)n1C,cell number change,,37.3%
same,AC50,[2],"10.3 µM [rising, partial curve]"
same,AC50,[1],"0.116 µM [falling, full curve, poor fit]"
c1cc2c(cc1C1CCCN1)OCCCO2 (stereo not given),cell number change,,-58.6%
same,AC50,[2],"2.31 µM [falling, partial curve, poor fit]"
same,AC50,[1],"6.51 µM [falling, partial curve, poor fit]"
Cc1ccc(NC(=O)C(C)OC(=O)CCC2CCCCC2)cc1 (stereo not given),cell number change,,-11.5%
O=C(O)C1CCN(c2ccc(S(=O)(=O)N3CCC(C(=O)O)CC3)cc2[N+](=O)[O-])CC1,cell number change,,-6.42%
same,AC50,[1],"25.9 µM [falling, single point]"
CC1(c2ccc(Cl)cc2Cl)NC(=O)N(CC(=O)N2CCN(C(=O)c3ccco3)CC2)C1=O (stereo not given),cell number change,,13.4%
same,AC50,[1],"0.651 µM [falling, full curve, poor fit]"
Cc1ccc2oc(-c3ccccc3C(=O)O)cc(=O)c2c1,cell number change,,23.5%
same,AC50,[2],"0.00461 µM [rising, full curve, poor fit]"
same,AC50,[1],"0.116 µM [falling, full curve]"
CCN(C(=O)c1cc2ccccc2oc1=O)c1ccccc1,cell number change,,-6.69%
CCOC(=O)N1CCN(S(=O)(=O)N2CCCC(C(=O)NCc3ccccc3Cl)C2)CC1 (stereo not given),cell number change,,28.1%
same,AC50,[2],"0.103 µM [rising, full curve, poor fit]"
Cc1ccc2c(c1)C1CN(C)CCC1N2C(=S)Nc1ccc(Cl)cc1Cl (stereo not given),cell number change,,19%
same,AC50,[1],"6.51 µM [rising, single point]"
Cc1cc(C)nc(NC2=NCC(=O)N2c2ccccc2)n1,cell number change,,85.3%
same,AC50,[2],"3.66 µM [rising, full curve]"
same,AC50,[1],"6.51 µM [rising, partial curve, poor fit]"
CCCn1c(SCC(=O)Nc2cc(S(=O)(=O)N(C)C)ccc2OC)n[nH]c1=O,cell number change,,14.5%
Cc1nn(-c2ccccc2)c(Cl)c1C(=O)NCCN(C)C,cell number change,,-15.2%
same,AC50,[1],"1.3 µM [falling, full curve, poor fit]"
O=C(c1ccco1)N1CCN(Cc2ccccc2F)CC1,cell number change,,17.9%
same,AC50,[1],"0.326 µM [falling, full curve]"
CCOc1ccc(NC(=O)c2cc3n(n2)C(C(F)(F)F)CC(c2ccco2)N3)cc1 (stereo not given),cell number change,,-0.922%
same,AC50,[1],"4.11 µM [rising, single point]"
NC(=O)CSc1nnc(COc2cccc3ccccc23)o1,cell number change,,22.5%
same,AC50,[1],"29.1 µM [rising, single point]"
O=C(CN1CCC(n2nnc3cc(F)ccc32)CC1)N1CCc2ccccc2C1,cell number change,,-21.9%
same,AC50,[1],"5.17 µM [rising, single point]"
CC(C)NC(=O)COc1nncc2ccccc12,cell number change,,-37.4%
same,AC50,[2],"0.103 µM [falling, full curve]"
same,AC50,[1],"29.1 µM [falling, single point]"
CC(=O)C(Cc1ccccc1)NC(=O)CN1CCc2ccccc2C1 (stereo not given),cell number change,,19%
same,AC50,[2],"0.146 µM [falling, full curve, poor fit]"
same,AC50,[1],"0.184 µM [falling, full curve, poor fit]"
O=C(Nc1cccc2c1CCCC2)c1ccccc1Br,cell number change,,18.5%
COc1ccccc1CNS(=O)(=O)c1ccc2c(c1)NC(=O)C(C)S2 (stereo not given),AC50,[2],"2.06 µM [falling, single point]"
O=C(COc1cccc(C(F)(F)F)c1)Nc1ccccc1N1CCCCC1,cell number change,,31%
same,AC50,[2],"4.11 µM [rising, full curve]"
same,AC50,[1],"5.17 µM [rising, full curve]"
O=C(Nc1ccn(Cc2cccc3ccccc23)n1)c1cccnc1,cell number change,,24.9%
O=C(CN1C2=NCCN2c2ccccc21)c1ccco1,cell number change,,-55.2%
same,AC50,[2],"29.1 µM [falling, single point]"
same,AC50,[1],"29.1 µM [falling, single point]"

# Reformatted: entries from further up.
compound | measurement | setting | value
Cc1ccc2oc(-c3ccccc3C(=O)O)cc(=O)c2c1 | cell number change |  | 23.5%
same | AC50 | [2] | 0.00461 µM [rising, full curve, poor fit]
same | AC50 | [1] | 0.116 µM [falling, full curve]
CCN(C(=O)c1cc2ccccc2oc1=O)c1ccccc1 | cell number change |  | -6.69%
CCOC(=O)N1CCN(S(=O)(=O)N2CCCC(C(=O)NCc3ccccc3Cl)C2)CC1 (stereo not given) | cell number change |  | 28.1%
same | AC50 | [2] | 0.103 µM [rising, full curve, poor fit]
Cc1ccc2c(c1)C1CN(C)CCC1N2C(=S)Nc1ccc(Cl)cc1Cl (stereo not given) | cell number change |  | 19%
same | AC50 | [1] | 6.51 µM [rising, single point]
Cc1cc(C)nc(NC2=NCC(=O)N2c2ccccc2)n1 | cell number change |  | 85.3%
same | AC50 | [2] | 3.66 µM [rising, full curve]
same | AC50 | [1] | 6.51 µM [rising, partial curve, poor fit]
CCCn1c(SCC(=O)Nc2cc(S(=O)(=O)N(C)C)ccc2OC)n[nH]c1=O | cell number change |  | 14.5%
Cc1nn(-c2ccccc2)c(Cl)c1C(=O)NCCN(C)C | cell number change |  | -15.2%
same | AC50 | [1] | 1.3 µM [falling, full curve, poor fit]
O=C(c1ccco1)N1CCN(Cc2ccccc2F)CC1 | cell number change |  | 17.9%
same | AC50 | [1] | 0.326 µM [falling, full curve]
